{"source": "PubChem BioAssay AID686937, Drosophila RNAi Screening Center | 2013", "test": "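Knock-downs that reduce output of a secreted reporter enzyme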 (primary screen)", "cell system": "Drosophila S2 cells expressing secreted horseradish peroxidase", "knock-down reagent": "long dsRNA against Drosophila genes", "duration": "about 5.5 days (5 days dsRNA, then 12 h reporter induction)", "treatment": "reporter expression induced after 5 days of dsRNA, read 12 h later; inducer not stated", "detection": "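After 5 days of dsRNA and 12 h of reporter induction, medium peroxidase read by chemiluminescence and scored as per-plate z-score; higher values mean more reporter released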", "direction": "z-score: higher = more reporter secreted into medium", "note": "The screen tested about 23,000 reagents; below is a random part of those that have a named target and a result. 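Reduced-secretion tags in replicate 1 do not always agree with the z-scores; no criterion for assigning the tags was given.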 Reagents against one gene are numbered here. A plus sign joins genes that one reagent is predicted to hit. Further read-outs or replicates are left out here. Not given: the amount of reagent."}
{"target gene": "Fdx1", "reagent no.": 1, "z-score, replicate 1": 0.61}
{"target gene": "CG5568", "reagent no.": 1, "z-score, replicate 1": 0.06}
{"target gene": "CG5568", "reagent no.": 2, "z-score, replicate 1": -0.2}
{"target gene": "CG13725", "reagent no.": 1, "z-score, replicate 1": 0.75}
{"target gene": "CG11550", "reagent no.": 1, "z-score, replicate 1": 0.46}
{"target gene": "Rab9Db + Rab9D + Rab9E", "reagent no.": 1, "z-score, replicate 1": 0.18}
{"target gene": "Exo70", "reagent no.": 1, "z-score, replicate 1": 0.27}
{"target gene": "CG31230", "reagent no.": 1, "z-score, replicate 1": -0.02}
{"target gene": "Polr2A", "reagent no.": 1, "z-score, replicate 1": -5.59, "phenotype, replicate 1": "reduced secretion"}
{"target gene": "CG33642", "reagent no.": 1, "z-score, replicate 1": 0.57}
{"target gene": "Mpcp1", "reagent no.": 1, "z-score, replicate 1": 0.01}
{"target gene": "Nepl4", "reagent no.": 1, "z-score, replicate 1": 0.09}
{"target gene": "CG10958", "reagent no.": 1, "z-score, replicate 1": 0.58}
{"target gene": "Pde9", "reagent no.": 1, "z-score, replicate 1": 0.24}
{"target gene": "Pde9", "reagent no.": 2, "z-score, replicate 1": 0.27}
{"target gene": "Pde9", "reagent no.": 3, "z-score, replicate 1": 0.37}
{"target gene": "Pde9", "reagent no.": 4, "z-score, replicate 1": 0.2}
{"target gene": "E(spl)m7-HLH", "reagent no.": 1, "z-score, replicate 1": 0.25}
{"target gene": "Jon25Bii", "reagent no.": 1, "z-score, replicate 1": -0.03}
{"target gene": "Klp61F", "reagent no.": 1, "z-score, replicate 1": -2.05, "phenotype, replicate 1": "reduced secretion"}
{"target gene": "Dtwd2", "reagent no.": 1, "z-score, replicate 1": 0.4}
{"target gene": "pkm", "reagent no.": 1, "z-score, replicate 1": 0.02}
{"target gene": "Root", "reagent no.": 1, "z-score, replicate 1": 0.43}
{"target gene": "dmrt99B", "reagent no.": 1, "z-score, replicate 1": -2.14, "phenotype, replicate 1": "reduced secretion"}
{"target gene": "fbl", "reagent no.": 1, "z-score, replicate 1": -0.47}
{"target gene": "RpL7", "reagent no.": 1, "z-score, replicate 1": -3.95, "phenotype, replicate 1": "reduced secretion"}
{"target gene": "CG2712", "reagent no.": 1, "z-score, replicate 1": 0.46}
{"target gene": "Art6", "reagent no.": 1, "z-score, replicate 1": 0.3}
{"target gene": "CG34430", "reagent no.": 1, "z-score, replicate 1": 0.3}
{"target gene": "CG15561", "reagent no.": 1, "z-score, replicate 1": 0.47}
{"target gene": "shv", "reagent no.": 1, "z-score, replicate 1": 0.22}
{"target gene": "shv", "reagent no.": 2, "z-score, replicate 1": -0.29}
{"target gene": "Atg18b", "reagent no.": 1, "z-score, replicate 1": 0.17}
{"target gene": "CG4098", "reagent no.": 1, "z-score, replicate 1": 0.35}
{"target gene": "CG11786", "reagent no.": 1, "z-score, replicate 1": 0.27}
{"target gene": "Ilp2", "reagent no.": 1, "z-score, replicate 1": 0.04}
{"target gene": "sphe", "reagent no.": 1, "z-score, replicate 1": 0.46}
{"target gene": "Coq2", "reagent no.": 1, "z-score, replicate 1": 0.33}
{"target gene": "Coq2", "reagent no.": 2, "z-score, replicate 1": 0.86}
{"target gene": "CG12159", "reagent no.": 1, "z-score, replicate 1": 0.16}
{"target gene": "Ppa", "reagent no.": 1, "z-score, replicate 1": 0.22}
{"target gene": "CG9240", "reagent no.": 1, "z-score, replicate 1": 0.35}
{"target gene": "Golgin97", "reagent no.": 1, "z-score, replicate 1": 0.49}
{"target gene": "Dbp21E2", "reagent no.": 1, "z-score, replicate 1": 0.31}
{"target gene": "Vha68-1", "reagent no.": 1, "z-score, replicate 1": 0.4}
{"target gene": "CG15247", "reagent no.": 1, "z-score, replicate 1": 0.25}
{"target gene": "Ccm3", "reagent no.": 1, "z-score, replicate 1": 0}
{"target gene": "CG13313", "reagent no.": 1, "z-score, replicate 1": 0.41}
{"target gene": "CG15073", "reagent no.": 1, "z-score, replicate 1": 0.32}
{"target gene": "CR11023", "reagent no.": 1, "z-score, replicate 1": 0.26}
{"target gene": "janA", "reagent no.": 1, "z-score, replicate 1": 0.13}
